Data on three molecules can be found in publication PMC6776900, “PPM1G forms a PPP‐type phosphatase holoenzyme with B56δ that maintains adherens junction integrity” (EMBO Reports, 2019).

Chains of the proteins cited; added tags and fusions are not shown. Lines headed by an entry give the natural chain unless they say otherwise; changes in a name come on top.
UniProt Q14738: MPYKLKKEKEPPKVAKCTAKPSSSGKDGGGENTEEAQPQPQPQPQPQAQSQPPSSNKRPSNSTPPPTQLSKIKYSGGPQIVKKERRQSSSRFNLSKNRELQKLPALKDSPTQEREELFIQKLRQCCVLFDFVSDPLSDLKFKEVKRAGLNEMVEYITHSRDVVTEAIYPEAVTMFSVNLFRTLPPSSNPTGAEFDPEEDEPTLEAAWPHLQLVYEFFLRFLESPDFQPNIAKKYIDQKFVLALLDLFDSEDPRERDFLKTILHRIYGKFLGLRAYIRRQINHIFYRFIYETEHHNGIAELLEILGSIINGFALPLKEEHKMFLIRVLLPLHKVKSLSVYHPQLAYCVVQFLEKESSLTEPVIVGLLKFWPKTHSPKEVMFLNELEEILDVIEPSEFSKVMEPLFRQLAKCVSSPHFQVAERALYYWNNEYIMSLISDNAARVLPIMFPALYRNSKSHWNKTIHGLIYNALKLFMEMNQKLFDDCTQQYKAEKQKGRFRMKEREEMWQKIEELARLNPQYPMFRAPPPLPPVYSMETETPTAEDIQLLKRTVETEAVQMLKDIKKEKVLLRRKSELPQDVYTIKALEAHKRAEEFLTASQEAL
UniProt Q15173: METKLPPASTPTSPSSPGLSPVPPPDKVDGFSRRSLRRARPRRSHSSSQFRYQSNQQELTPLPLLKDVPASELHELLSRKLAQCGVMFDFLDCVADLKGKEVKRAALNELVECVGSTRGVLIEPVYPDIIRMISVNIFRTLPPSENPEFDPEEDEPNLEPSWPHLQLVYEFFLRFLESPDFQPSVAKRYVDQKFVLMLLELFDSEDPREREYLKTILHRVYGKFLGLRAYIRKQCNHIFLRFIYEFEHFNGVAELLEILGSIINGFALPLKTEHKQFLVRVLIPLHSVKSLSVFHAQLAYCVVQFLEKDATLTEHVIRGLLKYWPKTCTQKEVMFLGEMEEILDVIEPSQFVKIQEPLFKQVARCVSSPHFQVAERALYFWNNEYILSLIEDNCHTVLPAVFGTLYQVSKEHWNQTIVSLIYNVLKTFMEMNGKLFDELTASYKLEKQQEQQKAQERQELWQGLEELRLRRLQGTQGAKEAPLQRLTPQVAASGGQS
UniProt P35221: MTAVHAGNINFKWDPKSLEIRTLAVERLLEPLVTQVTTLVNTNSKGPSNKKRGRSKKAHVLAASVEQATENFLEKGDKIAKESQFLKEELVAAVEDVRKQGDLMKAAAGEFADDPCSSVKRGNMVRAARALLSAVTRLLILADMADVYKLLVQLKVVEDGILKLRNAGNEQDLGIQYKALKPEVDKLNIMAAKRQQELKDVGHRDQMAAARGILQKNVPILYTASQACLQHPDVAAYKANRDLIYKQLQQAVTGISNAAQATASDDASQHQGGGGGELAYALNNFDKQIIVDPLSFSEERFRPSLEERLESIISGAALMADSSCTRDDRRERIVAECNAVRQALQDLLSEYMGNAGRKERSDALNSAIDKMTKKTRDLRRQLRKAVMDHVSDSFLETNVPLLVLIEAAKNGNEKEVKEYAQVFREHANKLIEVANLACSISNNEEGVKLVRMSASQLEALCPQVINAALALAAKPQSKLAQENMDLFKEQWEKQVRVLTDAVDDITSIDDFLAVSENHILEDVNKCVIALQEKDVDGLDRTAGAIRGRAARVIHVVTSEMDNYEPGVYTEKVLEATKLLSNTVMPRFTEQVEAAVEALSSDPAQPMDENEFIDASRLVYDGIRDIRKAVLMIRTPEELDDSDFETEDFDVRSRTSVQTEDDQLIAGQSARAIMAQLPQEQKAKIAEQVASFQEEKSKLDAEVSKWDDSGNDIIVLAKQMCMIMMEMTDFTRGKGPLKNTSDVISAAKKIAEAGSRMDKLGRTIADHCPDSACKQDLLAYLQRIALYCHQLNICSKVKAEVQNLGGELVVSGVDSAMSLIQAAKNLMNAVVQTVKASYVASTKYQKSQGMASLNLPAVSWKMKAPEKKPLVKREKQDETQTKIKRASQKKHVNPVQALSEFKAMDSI

Common to all, as to assay: affinity purification with mass spectrometry; tandem affinity purification (streptavidin Sepharose, biotin elution, S-protein agarose) from lysates (NETN buffer) of HEK293T cells expressing the SFB-tagged bait; LC-MS/MS; duplicates
For test [1], the target named is SFB-B56δ full length (FL) (human) (UniProt Q14738).
Test [2] concerns the target T1, SFB-PPM1G full length (FL) (human) (UniProt O15355).
T1 sequence: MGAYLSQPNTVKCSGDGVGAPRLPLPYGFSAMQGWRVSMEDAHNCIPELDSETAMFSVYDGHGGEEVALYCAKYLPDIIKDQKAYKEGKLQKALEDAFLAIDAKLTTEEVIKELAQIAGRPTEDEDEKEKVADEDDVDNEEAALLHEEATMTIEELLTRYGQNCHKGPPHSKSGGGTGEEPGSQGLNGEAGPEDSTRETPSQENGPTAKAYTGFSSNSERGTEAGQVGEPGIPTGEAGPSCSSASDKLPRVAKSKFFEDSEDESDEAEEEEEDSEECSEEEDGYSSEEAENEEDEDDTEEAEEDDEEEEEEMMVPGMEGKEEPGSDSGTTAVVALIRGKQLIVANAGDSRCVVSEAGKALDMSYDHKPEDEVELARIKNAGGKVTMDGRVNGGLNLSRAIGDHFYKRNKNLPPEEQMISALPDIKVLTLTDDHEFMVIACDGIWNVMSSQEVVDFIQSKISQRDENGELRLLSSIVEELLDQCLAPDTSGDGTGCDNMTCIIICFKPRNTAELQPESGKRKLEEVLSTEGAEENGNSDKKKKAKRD

For test [3], the target named is SFB-B56δ full length (FL) (human) (UniProt Q14738). The source holds these as a separate data set.

Read-outs that look alike come from different tables or passages of the source. No constants are given. Whether binding was seen depends on the method and setting. In cells and extracts the contact can be indirect. A yes stands for co-enrichment or nearness to the bait. Other partners may have been found.

In the case of “B56β found in the B56δ purification (from UniProt Q15173 1-497)”, the binding entry in test [1] is given as “binds”.

As for “endogenous α-catenin (from UniProt P35221 1-906)”, the binding result in test [2] was “binds”.

B1: 6xHis-tagged PPM1G (enzyme, human, UniProt O15355 1-546, looked up)
chain: MGAYLSQPNTVKCSGDGVGAPRLPLPYGFSAMQGWRVSMEDAHNCIPELDSETAMFSVYDGHGGEEVALYCAKYLPDIIKDQKAYKEGKLQKALEDAFLAIDAKLTTEEVIKELAQIAGRPTEDEDEKEKVADEDDVDNEEAALLHEEATMTIEELLTRYGQNCHKGPPHSKSGGGTGEEPGSQGLNGEAGPEDSTRETPSQENGPTAKAYTGFSSNSERGTEAGQVGEPGIPTGEAGPSCSSASDKLPRVAKSKFFEDSEDESDEAEEEEEDSEECSEEEDGYSSEEAENEEDEDDTEEAEEDDEEEEEEMMVPGMEGKEEPGSDSGTTAVVALIRGKQLIVANAGDSRCVVSEAGKALDMSYDHKPEDEVELARIKNAGGKVTMDGRVNGGLNLSRAIGDHFYKRNKNLPPEEQMISALPDIKVLTLTDDHEFMVIACDGIWNVMSSQEVVDFIQSKISQRDENGELRLLSSIVEELLDQCLAPDTSGDGTGCDNMTCIIICFKPRNTAELQPESGKRKLEEVLSTEGAEENGNSDKKKKAKRD
notes: PPM1G (PP2Cγ); The cloning into a His-tag vector is not described in the methods; also called His-PPM1G; recombinant PPM1G; source: recombinant
Turning to B1, in test [3], the binding result was “binds”.
